Record: PubChem BioAssay AID1259425 (University of Nebraska Medical Center, 2018)
Assay: 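Compare each knockdown with KSR1 silencing using changes in marker transcripts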 (primary screen). System: HCT116 human colon cancer cells. Reagent: siRNA pool against human genes, 50 nM siRNA. Read-out: 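mRNA of six signature genes measured together by branched-DNA assay after 50 nM siRNA pool, blank removed, divided by geometric mean of two housekeeping genes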. Direction: BNIP3L mRNA: higher = more BNIP3L transcript after knockdown; NDRG1 mRNA: higher = more NDRG1 transcript after knockdown; BNIP3 mRNA: higher = more BNIP3 transcript after knockdown; ALDOC mRNA: higher = more ALDOC transcript after knockdown; ACSL5 mRNA: higher = more ACSL5 transcript after knockdown.
The deposit covers about 14,000 reagents; shown is a part drawn at random. Reagent sequences are not shown. The record does not give: the time to read-out.

| target | BNIP3L mRNA, set 1 | NDRG1 mRNA, set 1 | BNIP3 mRNA, set 1 | ALDOC mRNA, set 1 | ACSL5 mRNA, set 1 |
| --- | --- | --- | --- | --- | --- |
| EXOC2 (exocyst complex component 2) | 0.117 | 0.107 | 0.267 | 0.018 | 0.18 |
| PHF2 (PHD finger protein 2) | 0.069 | 0.0774 | 0.335 | 0.0083 | 0.0815 |
| LBH (LBH regulator of Wnt signaling pathway) | 0.236 | 0.578 | 0.373 | 0.135 | 0.506 |
| ADRB1 (adrenoceptor beta 1) | 0.176 | 0.218 | 0.263 | 0.02 | 0.0674 |
| HAX1 (HCLS1 associated protein X-1) | 0.118 | 0.743 | 0.374 | 0.0747 | 0.313 |
| PRSS23 (serine protease 23) | 0.122 | 0.168 | 0.232 | 0.0297 | 0.145 |
| AD7C-NTP (retired record) | 0.072 | 0.926 | 0.311 | 0.028 | 0.215 |
| ZNF471 (zinc finger protein 471) | 0.0854 | 0.128 | 0.341 | 0.0169 | 0.207 |
| RP1 (RP1 axonemal microtubule associated) | 0.214 | 0.351 | 0.171 | 0.0464 | 0.315 |
| USP26 (ubiquitin specific peptidase 26) | 0.0579 | 0.109 | 0.217 | 0.0157 | 0.175 |
| NISCH (nischarin) | 0.116 | 0.332 | 0.299 | 0.0385 | 0.254 |
| ZNG1A (Zn regulated GTPase metalloprotein activator 1A) | 0.0861 | 0.15 | 0.876 | 0.0328 | 0.161 |
| GNPTG (N-acetylglucosamine-1-phosphate transferase subunit gamma) | 0.093 | 0.42 | 0.286 | 0.0423 | 0.161 |
| LRRC8C (leucine rich repeat containing 8 VRAC subunit C) | 0.125 | 0.514 | 0.289 | 0.0246 | 0.285 |
| SPTBN1 (spectrin beta, non-erythrocytic 1) | 0.246 | 1.02 | 0.589 | 0.031 | 0.223 |
| SPIDR (scaffold protein involved in DNA repair) | 0.0915 | 0.134 | 0.392 | 0.0144 | 0.205 |
| PDCD2L (programmed cell death 2 like) | 0.301 | 0.159 | 0.345 | 0.105 | 0.465 |
| TRIM22 (tripartite motif containing 22) | 0.106 | 0.112 | 0.273 | 0.0389 | 0.0756 |
| CDIN1 (CDAN1 interacting nuclease 1) | 0.0993 | 0.386 | 0.238 | 0.0449 | 0.351 |
| HEY2 | 0.098 | 0.102 | 0.308 | 0.0317 | 0.0777 |
| ANXA11 (annexin A11) | 0.0878 | 0.082 | 0.328 | 0.00454 | 0.176 |
| PYGM (glycogen phosphorylase, muscle associated) | 0.0688 | 0.106 | 0.315 | 0.0174 | 0.101 |
| BCL2 (BCL2 apoptosis regulator) | 0.187 | 0.094 | 0.344 | 0.0192 | 0.255 |
| CHRNA10 (cholinergic receptor nicotinic alpha 10 subunit) | 0.134 | 0.467 | 0.339 | 0.0257 | 0.244 |
| RPL3 (ribosomal protein L3) | 0.357 | 0.173 | 0.389 | 0.0242 | 0.0375 |
| BCORL1 (BCL6 corepressor like 1) | 0.328 | 0.363 | 0.67 | 0.147 | 0.662 |
| ABCA8 (ATP binding cassette subfamily A member 8) | 0.225 | 0.797 | 0.466 | 0.0313 | 0.139 |
| RNASE1 (ribonuclease A family member 1, pancreatic) | 0.082 | 0.368 | 0.325 | 0.0265 | 0.179 |
| PTEN (phosphatase and tensin homolog) | 0.0606 | 0.173 | 0.341 | 0.0469 | 0.177 |
| OLFML3 (olfactomedin like 3) | 0.0596 | 0.333 | 0.347 | 0.0236 | 0.311 |
| RCCD1 (RCC1 domain containing 1) | 0.13 | 0.132 | 0.223 | 0.0131 | 0.194 |
| CELF4 (CUGBP Elav-like family member 4) | 0.24 | 0.364 | 0.408 | 0.113 | 0.329 |
| LMOD1 (leiomodin 1) | 0.131 | 0.165 | 0.251 | 0.0138 | 0.323 |
| TIMM22 (translocase of inner mitochondrial membrane 22) | 0.0854 | 0.167 | 0.291 | 0.0138 | 0.0932 |
| TRIM62 (tripartite motif containing 62) | 0.115 | 0.184 | 0.287 | 0.0184 | 0.149 |
| FERMT3 (FERM domain containing kindlin 3) | 0.159 | 0.382 | 0.333 | 0.072 | 0.356 |
| TRIM68 (tripartite motif containing 68) | 0.115 | 0.529 | 0.398 | 0.0216 | 0.209 |
| SOCS2 (suppressor of cytokine signaling 2) | 0.182 | 0.193 | 0.184 | 0.0245 | 0.152 |
| FBXL4 (F-box and leucine rich repeat protein 4) | 0.114 | 0.136 | 0.123 | 0.00271 | 0.153 |
| SERF1B (small EDRK-rich factor 1B) | 0.144 | 1.38 | 0.368 | 0.112 | 0.319 |
| UGT1A6 (UDP glucuronosyltransferase family 1 member A6) | 0.0949 | 0.139 | 0.276 | 0.0286 | 0.156 |
| STK39 (serine/threonine kinase 39) | 0.183 | 0.16 | 0.733 | 0.0158 | 0.186 |
| FGFR1 (fibroblast growth factor receptor 1) | 0.26 | 0.314 | 0.437 | 0.0175 | 0.519 |
| SUMO2 (small ubiquitin like modifier 2) | 0.126 | 0.198 | 0.293 | 0.036 | 0.124 |
| YPEL3 (yippee like 3) | 0.166 | 0.316 | 0.333 | 0.154 | 0.374 |
| ATP8A1 (ATPase phospholipid transporting 8A1) | 0.183 | 0.14 | 0.36 | 0.0702 | 0.166 |
| GAGE2E (G antigen 2E) | 0.148 | 0.466 | 0.314 | 0.0266 | 0.329 |
| PDPR (pyruvate dehydrogenase phosphatase regulatory subunit) | 0.276 | 0.465 | 0.63 | 0.12 | 0.172 |
| ITGB8 (integrin subunit beta 8) | 0.0964 | 0.228 | 0.312 | 0.022 | 0.204 |
| GCK (glucokinase) | 0.0802 | 0.0993 | 0.385 | 0.0221 | 0.174 |

Single entries from the entries so far.
ANXA11 (annexin A11), ACSL5 mRNA, set 1 = 0.176
Entry for ITGB8 (integrin subunit beta 8) in “NDRG1 mRNA, set 1”: 0.228
NISCH (nischarin), BNIP3L mRNA, set 1: 0.116
